Assay results reported in the supplement of paper PMC10849652.
The list shows a part of the results.

The chains behind the UniProt entries cited, without tags or fusion partners. Where a name states a change or a piece, a line headed by the entry shows the natural chain unless it says otherwise.
UniProt O60749: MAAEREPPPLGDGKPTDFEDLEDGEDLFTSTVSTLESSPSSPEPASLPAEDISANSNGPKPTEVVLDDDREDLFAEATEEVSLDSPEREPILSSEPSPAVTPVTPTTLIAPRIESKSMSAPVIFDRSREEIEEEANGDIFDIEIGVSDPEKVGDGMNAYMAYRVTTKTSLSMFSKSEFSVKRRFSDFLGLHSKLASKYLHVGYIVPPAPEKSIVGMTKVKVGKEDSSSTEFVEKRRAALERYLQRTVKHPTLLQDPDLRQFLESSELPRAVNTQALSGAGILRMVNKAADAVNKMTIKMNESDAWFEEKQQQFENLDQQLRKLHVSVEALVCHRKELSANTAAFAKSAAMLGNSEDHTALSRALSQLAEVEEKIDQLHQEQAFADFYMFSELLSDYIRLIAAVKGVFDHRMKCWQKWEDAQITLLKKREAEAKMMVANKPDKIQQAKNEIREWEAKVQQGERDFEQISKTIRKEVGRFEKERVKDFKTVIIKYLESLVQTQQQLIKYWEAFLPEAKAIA
UniProt Q96RF0: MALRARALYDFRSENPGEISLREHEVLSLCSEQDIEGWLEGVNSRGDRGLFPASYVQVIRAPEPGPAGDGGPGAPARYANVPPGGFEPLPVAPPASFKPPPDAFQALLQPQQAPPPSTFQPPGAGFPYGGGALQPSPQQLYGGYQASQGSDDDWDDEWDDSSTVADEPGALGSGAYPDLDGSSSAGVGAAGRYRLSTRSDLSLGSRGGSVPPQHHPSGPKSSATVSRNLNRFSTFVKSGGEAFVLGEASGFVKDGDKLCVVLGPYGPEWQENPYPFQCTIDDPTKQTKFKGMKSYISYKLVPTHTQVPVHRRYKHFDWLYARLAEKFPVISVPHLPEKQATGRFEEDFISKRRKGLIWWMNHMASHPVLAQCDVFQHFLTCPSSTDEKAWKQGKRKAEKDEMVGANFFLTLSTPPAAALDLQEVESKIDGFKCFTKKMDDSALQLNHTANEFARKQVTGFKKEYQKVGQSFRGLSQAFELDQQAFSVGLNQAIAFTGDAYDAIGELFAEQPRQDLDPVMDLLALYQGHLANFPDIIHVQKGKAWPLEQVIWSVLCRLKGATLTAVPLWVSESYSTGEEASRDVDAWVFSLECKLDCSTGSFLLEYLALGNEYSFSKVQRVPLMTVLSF
UniProt P08294: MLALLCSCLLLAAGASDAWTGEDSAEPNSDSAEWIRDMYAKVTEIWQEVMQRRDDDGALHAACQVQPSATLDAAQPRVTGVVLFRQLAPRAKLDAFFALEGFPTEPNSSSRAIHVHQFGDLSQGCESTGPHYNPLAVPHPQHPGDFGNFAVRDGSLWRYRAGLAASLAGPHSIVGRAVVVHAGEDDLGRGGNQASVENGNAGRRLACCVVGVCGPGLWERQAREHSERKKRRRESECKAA
UniProt Q92540: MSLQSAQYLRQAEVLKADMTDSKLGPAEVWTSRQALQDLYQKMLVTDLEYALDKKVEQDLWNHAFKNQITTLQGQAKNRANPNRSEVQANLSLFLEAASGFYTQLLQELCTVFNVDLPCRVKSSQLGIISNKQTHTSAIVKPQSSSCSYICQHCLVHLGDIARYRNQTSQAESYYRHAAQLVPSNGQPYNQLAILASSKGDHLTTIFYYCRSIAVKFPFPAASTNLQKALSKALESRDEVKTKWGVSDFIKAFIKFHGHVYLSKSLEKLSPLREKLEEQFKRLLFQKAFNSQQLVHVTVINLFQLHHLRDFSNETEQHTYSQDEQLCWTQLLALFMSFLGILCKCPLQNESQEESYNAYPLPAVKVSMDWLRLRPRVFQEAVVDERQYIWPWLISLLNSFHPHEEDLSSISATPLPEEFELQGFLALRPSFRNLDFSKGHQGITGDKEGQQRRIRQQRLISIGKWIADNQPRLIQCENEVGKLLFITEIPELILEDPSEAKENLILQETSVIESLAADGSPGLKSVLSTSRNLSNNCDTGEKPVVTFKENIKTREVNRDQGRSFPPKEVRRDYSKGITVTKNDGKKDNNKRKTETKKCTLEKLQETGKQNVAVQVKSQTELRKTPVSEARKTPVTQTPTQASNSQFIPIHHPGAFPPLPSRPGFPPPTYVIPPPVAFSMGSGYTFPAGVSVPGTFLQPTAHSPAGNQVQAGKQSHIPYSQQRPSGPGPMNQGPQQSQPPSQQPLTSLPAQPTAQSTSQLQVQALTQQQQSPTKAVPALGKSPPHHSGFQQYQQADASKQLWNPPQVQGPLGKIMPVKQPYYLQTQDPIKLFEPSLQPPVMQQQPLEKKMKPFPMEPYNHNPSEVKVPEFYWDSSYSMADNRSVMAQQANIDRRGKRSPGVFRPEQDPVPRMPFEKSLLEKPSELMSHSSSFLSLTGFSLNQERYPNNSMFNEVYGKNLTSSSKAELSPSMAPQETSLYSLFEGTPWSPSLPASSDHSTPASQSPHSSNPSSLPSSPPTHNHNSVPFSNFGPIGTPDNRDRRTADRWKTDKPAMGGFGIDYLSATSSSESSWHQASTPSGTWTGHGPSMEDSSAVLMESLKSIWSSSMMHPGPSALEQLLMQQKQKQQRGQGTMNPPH
UniProt P0DMW3: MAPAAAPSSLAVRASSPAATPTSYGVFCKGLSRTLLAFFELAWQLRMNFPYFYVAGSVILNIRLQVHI
UniProt Q9NRS6: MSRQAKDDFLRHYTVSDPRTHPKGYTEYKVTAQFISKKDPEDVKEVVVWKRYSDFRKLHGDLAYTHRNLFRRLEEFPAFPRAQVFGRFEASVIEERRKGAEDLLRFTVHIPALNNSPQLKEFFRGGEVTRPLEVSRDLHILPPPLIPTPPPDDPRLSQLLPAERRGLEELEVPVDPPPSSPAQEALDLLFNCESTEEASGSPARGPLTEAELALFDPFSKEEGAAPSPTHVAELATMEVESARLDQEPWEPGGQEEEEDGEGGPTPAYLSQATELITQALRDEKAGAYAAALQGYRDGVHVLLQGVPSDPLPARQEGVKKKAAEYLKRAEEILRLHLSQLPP
UniProt Q02086: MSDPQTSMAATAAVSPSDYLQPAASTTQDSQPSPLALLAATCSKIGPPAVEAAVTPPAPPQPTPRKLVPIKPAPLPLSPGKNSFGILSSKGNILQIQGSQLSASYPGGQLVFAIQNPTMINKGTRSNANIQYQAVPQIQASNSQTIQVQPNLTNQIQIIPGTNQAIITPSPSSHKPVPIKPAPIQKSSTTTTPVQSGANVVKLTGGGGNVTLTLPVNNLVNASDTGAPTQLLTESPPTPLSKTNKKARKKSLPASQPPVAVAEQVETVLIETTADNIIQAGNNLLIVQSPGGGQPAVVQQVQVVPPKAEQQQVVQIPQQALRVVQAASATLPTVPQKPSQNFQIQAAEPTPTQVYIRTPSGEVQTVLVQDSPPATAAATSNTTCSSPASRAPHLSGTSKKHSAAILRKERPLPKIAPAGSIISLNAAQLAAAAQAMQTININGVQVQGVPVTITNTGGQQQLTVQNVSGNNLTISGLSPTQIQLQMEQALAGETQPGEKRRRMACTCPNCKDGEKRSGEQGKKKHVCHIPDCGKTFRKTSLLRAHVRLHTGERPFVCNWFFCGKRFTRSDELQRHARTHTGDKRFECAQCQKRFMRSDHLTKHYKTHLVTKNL
UniProt P17405: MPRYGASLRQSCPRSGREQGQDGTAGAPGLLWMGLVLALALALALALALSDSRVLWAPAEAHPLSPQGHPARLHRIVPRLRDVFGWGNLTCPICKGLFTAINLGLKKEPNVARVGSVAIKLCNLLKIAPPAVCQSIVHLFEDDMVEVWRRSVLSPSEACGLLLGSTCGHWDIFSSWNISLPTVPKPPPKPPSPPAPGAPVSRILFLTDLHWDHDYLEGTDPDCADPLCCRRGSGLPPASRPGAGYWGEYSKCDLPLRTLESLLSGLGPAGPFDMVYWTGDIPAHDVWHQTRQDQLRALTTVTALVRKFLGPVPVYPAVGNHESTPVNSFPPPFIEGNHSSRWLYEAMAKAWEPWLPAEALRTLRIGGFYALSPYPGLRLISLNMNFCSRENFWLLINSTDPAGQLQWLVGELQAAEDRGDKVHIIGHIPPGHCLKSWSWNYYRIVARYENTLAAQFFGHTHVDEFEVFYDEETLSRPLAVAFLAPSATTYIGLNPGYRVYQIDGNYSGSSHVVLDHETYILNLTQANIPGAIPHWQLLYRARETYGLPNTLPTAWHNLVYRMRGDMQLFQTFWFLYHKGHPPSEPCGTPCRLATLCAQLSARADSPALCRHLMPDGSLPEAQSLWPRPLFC
UniProt P0C7P3: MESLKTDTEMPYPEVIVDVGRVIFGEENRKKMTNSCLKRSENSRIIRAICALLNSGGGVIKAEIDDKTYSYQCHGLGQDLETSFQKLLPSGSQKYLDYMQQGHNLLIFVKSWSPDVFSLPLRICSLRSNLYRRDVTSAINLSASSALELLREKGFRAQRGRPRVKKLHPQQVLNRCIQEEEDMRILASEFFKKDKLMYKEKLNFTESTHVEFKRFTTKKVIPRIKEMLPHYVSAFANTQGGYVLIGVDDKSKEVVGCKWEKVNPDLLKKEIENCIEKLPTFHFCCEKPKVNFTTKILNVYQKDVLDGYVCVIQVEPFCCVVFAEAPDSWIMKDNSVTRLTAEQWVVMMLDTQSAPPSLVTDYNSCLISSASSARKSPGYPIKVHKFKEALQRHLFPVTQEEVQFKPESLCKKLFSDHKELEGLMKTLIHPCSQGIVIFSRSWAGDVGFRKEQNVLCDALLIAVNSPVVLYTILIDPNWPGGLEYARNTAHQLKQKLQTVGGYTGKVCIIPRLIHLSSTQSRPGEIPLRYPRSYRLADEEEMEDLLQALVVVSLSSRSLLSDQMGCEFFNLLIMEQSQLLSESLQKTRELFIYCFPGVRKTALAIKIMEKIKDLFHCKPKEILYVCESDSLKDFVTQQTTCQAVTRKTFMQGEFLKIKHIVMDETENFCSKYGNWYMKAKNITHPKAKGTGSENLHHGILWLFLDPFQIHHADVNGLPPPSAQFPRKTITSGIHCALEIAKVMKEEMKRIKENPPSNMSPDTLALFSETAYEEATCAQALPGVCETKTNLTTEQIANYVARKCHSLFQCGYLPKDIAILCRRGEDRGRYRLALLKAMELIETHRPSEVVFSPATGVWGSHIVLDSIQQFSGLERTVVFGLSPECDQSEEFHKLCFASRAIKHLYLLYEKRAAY
UniProt P02814: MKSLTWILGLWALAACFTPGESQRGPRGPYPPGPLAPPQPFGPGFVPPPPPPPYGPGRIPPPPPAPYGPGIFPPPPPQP
UniProt Q86US8: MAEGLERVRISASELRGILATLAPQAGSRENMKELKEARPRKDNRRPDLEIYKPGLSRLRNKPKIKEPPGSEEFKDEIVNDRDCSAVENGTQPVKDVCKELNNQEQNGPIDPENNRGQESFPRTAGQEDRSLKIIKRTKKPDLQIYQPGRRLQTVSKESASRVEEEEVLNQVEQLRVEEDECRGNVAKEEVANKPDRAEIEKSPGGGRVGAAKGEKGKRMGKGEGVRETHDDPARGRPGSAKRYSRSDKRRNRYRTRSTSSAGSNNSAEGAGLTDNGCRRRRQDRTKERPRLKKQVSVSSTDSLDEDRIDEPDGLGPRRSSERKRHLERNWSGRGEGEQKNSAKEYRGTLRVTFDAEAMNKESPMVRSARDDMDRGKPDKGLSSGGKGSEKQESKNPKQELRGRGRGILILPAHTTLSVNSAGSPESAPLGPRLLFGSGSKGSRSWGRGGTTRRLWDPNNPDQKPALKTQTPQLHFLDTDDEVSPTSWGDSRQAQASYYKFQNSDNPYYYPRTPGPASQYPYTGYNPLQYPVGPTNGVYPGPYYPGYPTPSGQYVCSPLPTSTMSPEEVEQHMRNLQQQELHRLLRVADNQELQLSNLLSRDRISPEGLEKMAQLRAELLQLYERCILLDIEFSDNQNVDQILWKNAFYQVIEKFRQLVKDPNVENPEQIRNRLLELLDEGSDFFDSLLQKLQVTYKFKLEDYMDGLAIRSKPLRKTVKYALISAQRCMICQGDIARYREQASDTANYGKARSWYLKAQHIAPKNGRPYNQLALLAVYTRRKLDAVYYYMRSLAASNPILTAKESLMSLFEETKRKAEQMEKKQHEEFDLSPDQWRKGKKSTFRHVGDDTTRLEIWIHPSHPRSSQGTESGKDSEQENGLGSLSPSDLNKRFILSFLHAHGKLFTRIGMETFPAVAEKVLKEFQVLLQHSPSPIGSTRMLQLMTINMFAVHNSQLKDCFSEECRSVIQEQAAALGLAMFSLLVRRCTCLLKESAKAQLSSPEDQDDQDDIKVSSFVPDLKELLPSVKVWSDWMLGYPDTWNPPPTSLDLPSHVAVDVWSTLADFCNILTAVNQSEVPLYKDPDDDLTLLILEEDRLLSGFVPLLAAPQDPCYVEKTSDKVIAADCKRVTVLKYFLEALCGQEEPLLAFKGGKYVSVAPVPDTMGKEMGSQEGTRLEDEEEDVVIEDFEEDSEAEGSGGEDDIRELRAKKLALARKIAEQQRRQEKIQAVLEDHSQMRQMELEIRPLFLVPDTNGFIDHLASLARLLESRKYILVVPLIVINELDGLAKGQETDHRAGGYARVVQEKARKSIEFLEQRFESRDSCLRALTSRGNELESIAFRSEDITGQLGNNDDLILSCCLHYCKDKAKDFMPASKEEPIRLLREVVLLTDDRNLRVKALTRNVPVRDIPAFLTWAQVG

Assays:
Assay in all cases: log2 fold change, soluble protein after heating vs DMSO (PISA); higher = thermal stabilisation; K562 cells, 10 uM, 30 min; active = over 0.2 and 3.5 SD of the protein, either way, in both replicates (recomputed)
[1] = compound: C/C(=N\NC(=O)C1=CC(=CC=C1)S(=O)(=O)N2CCOCC2)/C3=C(C=CC(=C3)Cl)O
Method in brief: (§1)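 K562 cells at 2×10^6 cells/mL were given 10 μM compound for 30 min. Aliquots then went through 3 min of heating across 48°C-58°C, were pooled, and were extracted in PBS with 0.5% NP-40 at 4°C, and the supernatant after 21,000xg for 90 min was quantified by TMTpro 16plex LC-MS/MS with channel sums equalised. Thermal stability relative to control samples, from duplicates, is given as log2 fold change.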

[2] = compound: C1=CC(=C(C=C1Cl)C2=NC3=NC=CN=C3C(=N2)NC4=CC=NC=C4)F
Method in brief: as §1

[3] = compound: C1=CC2=C(C=CC(=C2)/C=C\3/C(=O)NC(=NCC4=CC=CS4)S3)N=C1
Method in brief: as §1

[4] = compound: C1=CC2=NC=CN=C2C=C1/C=C/3\C(=O)NC(=O)S3
Method in brief: as §1

[5] = compound: C1=CC=C2C(=C1)C3=NNC4=CC=CC(=C43)C2=O
Method in brief: as §1

erlotinib = compound: C#Cc1cccc(Nc2ncnc3cc(OCCOC)c(OCCOC)cc23)c1 [erlotinib]
Method in brief: as §1

[6] = compound: C1=CC(=CC=C1C2=NC3=C(N2)C=C(C=C3)C(=O)N)OC4=CC=C(C=C4)Cl
Method in brief: as §1

[7] = compound: C1=CC=C(C=C1)C2=NC(=C(N2)C3=CC=NC=C3)C4=CC(=C(C=C4)Cl)O
Method in brief: as §1

[8] = compound: C1CCN(C1)C(=O)NC2=CC=CC(=C2)NC3=NC=C(C(=N3)NCCC4=CN=CN4)Br
Method in brief: as §1

[9] = compound: C1CN(CCC1(CC2=CC=C(C=C2)Cl)N)C3=NC=NC4=C3C=CN4
Method in brief: as §1

Measured: log2 fold change

SNX2 isoform 2 (UniProt O60749)
inactive: [1] -0.244 | [2] 0.091 | [3] 0.402 | [4] -0.186 | [5] -0.033

SNX18 (UniProt Q96RF0)
inactive: erlotinib -0.05 | [2] 0.174 | [6] 0.049

SOX6 (UniProt P35712)
inactive: [7] 0.058

SOD3 (UniProt P08294)
inactive: [1] -0.01 | [3] -0.011 | [5] -0.094 | [8] 0.049 | [9] 0.214

SNTB2 (UniProt Q13425)
inactive: [1] 0.061 | [2] -0.009 | [3] 0.049 | [4] 0.005 | [7] -0.231 | [5] -0.012 | [8] -0.047 | [9] 0.146

SMDT1 (UniProt Q9H4I9)
inactive: [1] 0.012 | [2] -0.032 | [3] 0.044 | [4] 0.067 | [5] 0.044 | [8] 0.01 | [9] 0.036

SMG7 isoform 4 (UniProt Q92540)
inactive: erlotinib 0.19 | [2] -0.269 | [6] 0 | [4] -0.07 | [7] 0.015 | [8] -0.006 | [9] 0.139

SMIM19 (UniProt Q96E16)
inactive: [1] 0.156 | [3] 0.115 | [7] 0.044 | [5] -0.038 | [8] 0.015 | [9] -0.314

SNRPD2 (UniProt K7EJB5)
inactive: [1] -0.198 | [3] 0.214 | [4] 0.202 | [7] -0.254 | [5] -0.072 | [8] 0.148 | [9] -0.138

SLC9B2 (UniProt Q86UD5)
inactive: [2] 0.016

SLPI (UniProt P03973)
inactive: [7] -0.072

SMARCB1 (UniProt Q12824)
inactive: [8] 0.038 | [9] 0.025

SMIM10L1 (UniProt P0DMW3)
inactive: erlotinib -0.224 | [6] 0.021

SMTN isoform 6 (UniProt P53814)
inactive: erlotinib 0.184 | [2] -0.156 | [6] 0.082 | [8] 0.166 | [9] 0.131

SNX15 (UniProt Q9NRS6)
inactive: [1] 0.062 | [3] -0.088 | [4] -0.006 | [7] 0 | [5] -0.065 | [8] -0.166 | [9] -0.072

SMARCD1 (UniProt Q96GM5)
inactive: erlotinib 0.024 | [6] 0.038

SP4 (UniProt Q02446)
inactive: [7] -0.324 | [8] -0.135 | [9] 0.081

SNX19 (UniProt Q92543)
inactive: erlotinib 0.08 | [2] -0.061 | [6] -0.213

SMARCAL1 (UniProt Q9NZC9)
inactive: erlotinib 0.068 | [6] -0.04 | [7] -0.151

SMIM13 (UniProt P0DJ93)
inactive: [4] 0.006 | [7] -0.006

SMU1 isoform 2 (UniProt Q2TAY7)
inactive: [4] 0.061

SNX4 (UniProt O95219)
inactive: [7] -0.129

SNAP23 isoform 2 (UniProt O00161)
inactive: erlotinib 0.133 | [2] -0.007 | [6] 0.044 | [8] -0.076 | [9] 0.226

SP2 (UniProt Q02086)
inactive: [1] 0 | [3] 0.229 | [5] 0.095

SMPD1 (UniProt P17405)
inactive: [1] -0.122 | [3] -0.015 | [7] 0.317 | [5] -0.102

SMIM11A (UniProt P58511)
inactive: [4] -0.028

SNTA1 (UniProt Q13424)
inactive: [1] 0.017 | [2] -0.115 | [3] 0.018 | [4] 0.041 | [7] 0.078 | [5] 0.025 | [8] -0.056 | [9] 0.013

SORBS3 (UniProt O60504)
inactive: erlotinib 0.038 | [2] 0.055 | [6] 0.114 | [4] -0.345

SLFN14 (UniProt P0C7P3)
inactive: [1] -0.737 | [2] 0.143 | [3] -0.152 | [4] 0.12 | [7] -0.127 | [5] -0.013 | [8] 0.197 | [9] -0.058

SMPD4 isoform 2 (UniProt Q9NXE4)
inactive: [1] -0.001 | [3] 0.134 | [4] -0.027 | [5] -0.003 | [8] -0.011 | [9] 0.05

SNX30 (UniProt Q5VWJ9)
inactive: [2] -0.108

SMAD3 (UniProt P84022)
inactive: [1] -0.006 | [3] 0.027 | [7] -0.081 | [5] 0.04 | [8] -0.191 | [9] 0.012

SMR3B (UniProt P02814)
inactive: [4] 0.054

Quoted at random: 2 entries already listed, in no set order.
SMAD3 (UniProt P84022)
inactive: [1] -0.006 | [3] 0.027 | [7] -0.081 | [5] 0.04 | [8] -0.191 | [9] 0.012

SOD3 (UniProt P08294)
inactive: [1] -0.01 | [3] -0.011 | [5] -0.094 | [8] 0.049 | [9] 0.214

(continued)

SMIM29 (UniProt Q86T20)
inactive: erlotinib 0.145 | [6] -0.105

SNRPN isoform 2 (UniProt P63162)
inactive: [1] 0.137 | [3] -0.276 | [7] -0.163 | [5] -0.188

SMAGP (UniProt Q0VAQ4)
inactive: [1] 0.184 | [2] 0.16 | [3] -0.028 | [4] 0.161 | [5] 0.107 | [8] -0.132 | [9] -0.143

SNX16 (UniProt P57768)
inactive: erlotinib 0.019 | [2] 0.092 | [6] 0.013 | [4] 0.186 | [7] -0.024

SNX13 (UniProt Q9Y5W8)
inactive: erlotinib 0.289 | [2] 0.004 | [6] -0.048 | [4] -0.014 | [7] 0.105

SMG6 (UniProt Q86US8)
inactive: [2] -0.45 | [4] -0.041 | [8] -0.195 | [9] 0.323

SMPDL3A (UniProt Q92484)
inactive: [2] 0.087 | [8] -0.018 | [9] 0.084
